## Library compounds against nucleic acid targets

Oligonucleotides screened, 5′ to 3′:
T1: PreQ1 riboswitch RNA pseudoknot, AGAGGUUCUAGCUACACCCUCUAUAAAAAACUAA. From B. subtilis. About 24,000 compounds screened, about 170 hits.
T2: TPP riboswitch RNA three-way junction, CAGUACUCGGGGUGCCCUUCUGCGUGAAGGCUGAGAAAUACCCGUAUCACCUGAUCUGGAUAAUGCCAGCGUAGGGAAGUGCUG. About 24,000 compounds screened, about 160 hits.
T3: SAM-II riboswitch RNA pseudoknot, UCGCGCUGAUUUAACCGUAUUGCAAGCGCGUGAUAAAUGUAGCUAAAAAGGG. About 21,000 compounds screened, about 200 hits.

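Each compound is printed as two spots on a slide made to bind it covalently, so it has no test concentration; the read-out is fluorescence of the bound, labelled oligonucleotide. The data file lists only calls. An earlier report of the laboratory on the PreQ1, TPP and SAM-II riboswitches (doi:10.1038/s41467-019-09493-3) used 1 µM RNA for 2 h and required a mean Z-score above 3 (spot signal-to-noise against the whole library), a score well above that on a control array, and duplicate spots agreeing (coefficient of variation under 100); it then also set aside compounds that hit other targets, which this list keeps. The cut-offs behind this list may differ. A missing hit is not proof of no binding, and a hit is not a measured affinity.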
“1” means called a hit, “0” means screened and not called a hit.
Compounds were drawn at random from those tested, without regard to their results.
A dash means that no call is listed here.

compound	T1	T2	T3
CCC(CC)C1C(C#N)=C(N)OC2=C1C(=O)CC(C)(C)C2 (stereo not given)	0	0	0
Cc1ccc2nsnc2c1NC(=O)N1Cc2cnn(CCO)c2C1	0	0	0
CC(C)Cc1nc(CN2CC[C@H]3CNC[C@H]32)no1	0	0	0
Cc1ccc(S(=O)(=O)c2cnc3ccccc3c2Nc2ccccc2)cc1	0	0	-
COc1ccc(Nc2cc(-c3ccccc3)ncn2)cc1	0	0	-
Cc1ccc(Nc2nc(C)c3ncn(-c4ccc(C)cc4)c3n2)cc1	0	0	0
Nc1nc(CCC(=O)N2CCC(c3nccn3CC3CCC3)CC2)cs1	0	0	0
O=C(O)CCc1nnc2ccc(NCc3cccnc3)nn12	0	0	0
CCc1ccccc1NC1c2ccccc2C(=O)N1Cc1ccc2c(c1)OCO2 (stereo not given)	0	0	0
CC1(C)O[C@H]2CC(=O)OC[C@]23[C@H]2CC[C@@]4(C)[C@H](c5ccoc5)OC(=O)[C@H]5O[C@]54[C@]2(C)C(=O)C[C@@H]13	0	0	0
COc1cc(C2C(C#N)=C(N)Oc3n[nH]c(C)c32)cc(OC)c1OC (stereo not given)	0	0	0
Nc1nonc1C(=O)NCCNCc1c(OCc2ccccc2F)ccc2ccccc12	0	0	-
CC(C)N1CCC(=NNC(=O)C(O)c2ccccc2)CC1 (stereo not given)	0	0	0
CCOc1ccc(Cn2nnc(C(=O)Nc3cc(C)cc(C)c3)c2N)cc1	0	0	0
COc1ccc2[nH]c(CNC(C)Cn3ccnc3)cc2c1 (stereo not given)	0	0	0
O=C(c1cnc2c(c1)CCCC2)N1C[C@H](CO)C[C@H](CN2CCOCC2)C1	0	0	0
Cc1nc2n(COCCO)cnn2c(=O)c1Br	0	0	0
CC(C)CCc1cc(Cl)nc(N)n1	0	0	0
CO[C@H]1CN(C(=O)c2csc(CN(C)C)n2)CC[C@H]1N	0	0	0
Cc1ccc(N(CC2=NCCN2)c2cccc(O)c2)cc1	0	0	0
Cn1cc(C=C2C(=O)Nc3cccnc32)c2ccccc21	0	0	0
Cc1oc(C(C)C)cc1C(=O)N1CC[C@H]2NCCC[C@]2(C(=O)O)C1	0	0	0
CCC(=O)OCCCNc1nc(-c2ccc(Cl)cc2)nc2ccccc12	0	0	0
COc1ccc(Cc2cc(N)[nH]n2)cc1	0	0	0
Cc1nc(CC(=O)N2CCC(C(O)c3ccccn3)CC2)cs1 (stereo not given)	0	0	0
COc1cc(OC)c(CNCCc2c(C)[nH]c3ccc(OC)cc23)c(OC)c1	0	0	0
O=C1OCCN1Cc1nc(C(O)c2ccccc2)nn1-c1cccc(F)c1 (stereo not given)	0	0	0
O=C(CN[C@@H](CO)c1ccccc1)NCCc1ccc(F)cc1	0	0	0
COc1ccc(-c2cc(NCCc3ccc(OC)c(OC)c3)nc(C)n2)cc1	0	0	-
NS(=O)(=O)c1ccc(CCN2CC3(CCNCC3)CCC2=O)cc1	0	0	0
CCOC(=O)c1c(C)nc(Nc2nc3ccccc3o2)nc1-c1ccccc1	0	0	0
CN1C(=O)C2(CCN(C(=O)CCN3CCNCC3)CC2)c2ccccc21	0	0	0
Cc1oc(C)c(C(=O)O)c1CN	0	0	0
COc1c(O)cc2c(c1O)[C@@H]1O[C@H](CO)[C@@H](O)[C@H](O)[C@H]1OC2=O	0	0	0
Nc1nonc1-c1nc2ccccc2n1Cc1c(Cl)cccc1Cl	0	0	0
Cn1ccnc1CCC1CCCCN1C(=O)c1cn(CCN)nn1 (stereo not given)	0	0	0
COc1ccc(C2(CCN)CCOC(C)(C)C2)cc1 (stereo not given)	0	0	0
Cc1ccc2oc(C3Nc4ccccc4NC4=C3C(=O)CC(c3cccs3)C4)cc(=O)c2c1 (stereo not given)	0	0	0
CCCn1c(C(O)c2ccc(OC)cc2)nc2ccccc21 (stereo not given)	0	1	0
CN(C(=O)c1ccc(-c2ccccc2Cl)o1)[C@H]1COC[C@@H]1O	0	0	0
OC(CN1CCOCC1)Cn1cnc2ccccc21 (stereo not given)	0	0	0
CCOC(=O)c1sc2nc(C)nc(Nc3cccc(C)c3)c2c1C	0	0	0
COC(=O)CNc1nc(OC)nc(N(C)C)n1	0	0	0
Cc1cc(C)n(-c2nc3ccccc3nc2Nc2ccccc2F)n1	0	0	0
c1cc(-c2sc(-c3ccncc3)c(-c3ccncc3)c2-c2ccncc2)ccn1	0	0	0

Calls as published in the ROBIN set (doi:10.1002/anie.202211358).